The supplement of paper PMC6411743
± gives the standard deviation of the averaged measurements. Some of the results follow.

Legend:
Test in all cases: NP40-soluble protein abundance relative to vehicle (solubility fold change) (ratio); higher = more soluble protein in presence of GTP
DNAJB2 = target: T1, DNAJB2 (UniProt P25686)
T1 sequence (whole entry): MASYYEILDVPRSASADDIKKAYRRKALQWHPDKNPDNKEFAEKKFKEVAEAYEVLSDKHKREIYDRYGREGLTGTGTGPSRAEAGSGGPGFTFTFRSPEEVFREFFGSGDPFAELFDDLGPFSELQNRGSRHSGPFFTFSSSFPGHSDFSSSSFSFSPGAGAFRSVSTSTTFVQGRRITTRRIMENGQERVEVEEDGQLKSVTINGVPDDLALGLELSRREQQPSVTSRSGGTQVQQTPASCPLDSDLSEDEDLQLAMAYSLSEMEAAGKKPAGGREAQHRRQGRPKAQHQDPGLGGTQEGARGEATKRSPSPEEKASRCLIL
Summary of the method: (§1)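 Jurkat crude lysate (Dounce-homogenised) was treated with eight concentrations from 0.1 to 10 mM for 10 min at room temperature, then 3 min at 37 °C. It was solubilised with 0.8% NP40 and benzonase (60 min, 4 °C) and ultracentrifuged, and the supernatant was TMT-labelled for LC-MS/MS. Intensities were vsn-normalised, and the value is the fold change against the NP40-processed vehicle per replicate, from three independent experiments.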

GSTM3 = target: T2, GSTM3 (UniProt P21266)
T2 sequence (whole entry): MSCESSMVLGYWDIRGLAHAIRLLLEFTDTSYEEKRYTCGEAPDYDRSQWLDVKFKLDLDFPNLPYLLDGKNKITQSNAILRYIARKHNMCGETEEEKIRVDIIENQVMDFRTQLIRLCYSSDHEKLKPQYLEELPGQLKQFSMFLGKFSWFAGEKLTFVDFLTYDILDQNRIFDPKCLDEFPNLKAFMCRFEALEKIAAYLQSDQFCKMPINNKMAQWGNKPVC
Summary of the method: as §1

JUND = target: T3, JUND (UniProt P17535)
T3 sequence (whole entry): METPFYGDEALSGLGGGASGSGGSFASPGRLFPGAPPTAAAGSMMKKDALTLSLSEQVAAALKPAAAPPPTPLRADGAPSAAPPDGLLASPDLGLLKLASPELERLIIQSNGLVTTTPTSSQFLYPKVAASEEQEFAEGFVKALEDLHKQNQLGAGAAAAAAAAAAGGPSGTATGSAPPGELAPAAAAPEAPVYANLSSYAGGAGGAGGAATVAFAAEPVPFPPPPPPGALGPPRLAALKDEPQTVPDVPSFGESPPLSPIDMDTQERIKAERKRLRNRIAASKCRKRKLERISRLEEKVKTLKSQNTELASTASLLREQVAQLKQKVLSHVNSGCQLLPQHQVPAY
Summary of the method: as §1

LTA4H = target: T4, LTA4H (UniProt P09960)
T4 sequence (whole entry): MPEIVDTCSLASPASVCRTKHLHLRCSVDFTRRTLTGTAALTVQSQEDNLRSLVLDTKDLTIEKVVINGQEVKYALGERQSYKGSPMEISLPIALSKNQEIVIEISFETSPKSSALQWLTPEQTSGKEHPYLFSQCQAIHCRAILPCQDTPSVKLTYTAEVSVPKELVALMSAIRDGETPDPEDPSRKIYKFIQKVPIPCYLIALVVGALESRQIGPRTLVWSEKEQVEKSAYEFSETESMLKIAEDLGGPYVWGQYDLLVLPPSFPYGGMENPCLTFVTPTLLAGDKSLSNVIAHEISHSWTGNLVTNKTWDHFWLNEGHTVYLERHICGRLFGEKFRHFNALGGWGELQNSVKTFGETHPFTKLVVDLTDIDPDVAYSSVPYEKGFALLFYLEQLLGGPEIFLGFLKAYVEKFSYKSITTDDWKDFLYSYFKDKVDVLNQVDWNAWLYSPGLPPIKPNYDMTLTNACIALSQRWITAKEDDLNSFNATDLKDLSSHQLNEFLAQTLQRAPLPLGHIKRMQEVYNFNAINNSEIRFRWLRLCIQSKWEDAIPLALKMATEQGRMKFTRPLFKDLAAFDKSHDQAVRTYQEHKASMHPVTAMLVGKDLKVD
Summary of the method: as §1

Nc1nc2c(ncn2[C@@H]2O[C@H](COP(=O)(O)OP(=O)(O)OP(=O)(O)O)[C@@H](O)[C@H]2O)c(=O)[nH]1 [guanosine triphosphate]
NP40-soluble protein abundance (DNAJB2; concentration: 0.1mM): 1.09 ± 0.14
NP40-soluble protein abundance (DNAJB2; concentration: 0.5mM): 1.02 ± 0.032
NP40-soluble protein abundance (DNAJB2; concentration: 1mM): 1.06 ± 0.13
NP40-soluble protein abundance (DNAJB2; concentration: 2mM): 1.022 ± 0.01
NP40-soluble protein abundance (DNAJB2; concentration: 4mM): 1.03 ± 0.04
NP40-soluble protein abundance (DNAJB2; concentration: 6mM): 1.02 ± 0.052
NP40-soluble protein abundance (DNAJB2; concentration: 8mM): 1.03 ± 0.088
NP40-soluble protein abundance (DNAJB2; concentration: 10mM): 1.03 ± 0.082
NP40-soluble protein abundance (GSTM3; concentration: 0.1mM): 1.03 ± 0.048
NP40-soluble protein abundance (GSTM3; concentration: 0.5mM): 1.05 ± 0.043
NP40-soluble protein abundance (GSTM3; concentration: 1mM): 0.941 ± 0.033
NP40-soluble protein abundance (GSTM3; concentration: 2mM): 0.937 ± 0.047
NP40-soluble protein abundance (GSTM3; concentration: 4mM): 0.906 ± 0.046
NP40-soluble protein abundance (GSTM3; concentration: 6mM): 0.904 ± 0.046
NP40-soluble protein abundance (GSTM3; concentration: 8mM): 0.845 ± 0.051
NP40-soluble protein abundance (GSTM3; concentration: 10mM): 0.861 ± 0.12
NP40-soluble protein abundance (JUND; concentration: 0.1mM): 0.993 ± 0.12
NP40-soluble protein abundance (JUND; concentration: 0.5mM): 0.936 ± 0.076
NP40-soluble protein abundance (JUND; concentration: 1mM): 1.12 ± 0.12
NP40-soluble protein abundance (JUND; concentration: 2mM): 1.01 ± 0.027
NP40-soluble protein abundance (JUND; concentration: 4mM): 0.998 ± 0.088
NP40-soluble protein abundance (JUND; concentration: 6mM): 1.07 ± 0.085
NP40-soluble protein abundance (JUND; concentration: 8mM): 1.08 ± 0.065
NP40-soluble protein abundance (JUND; concentration: 10mM): 1.1 ± 0.092
NP40-soluble protein abundance (LTA4H; concentration: 0.1mM): 1 ± 0.039
NP40-soluble protein abundance (LTA4H; concentration: 0.5mM): 1.02 ± 0.064
NP40-soluble protein abundance (LTA4H; concentration: 1mM): 0.907 ± 0.025
NP40-soluble protein abundance (LTA4H; concentration: 2mM): 0.893 ± 0.071
NP40-soluble protein abundance (LTA4H; concentration: 4mM): 0.872 ± 0.06
NP40-soluble protein abundance (LTA4H; concentration: 6mM): 0.883 ± 0.038
NP40-soluble protein abundance (LTA4H; concentration: 8mM): 0.848 ± 0.033
NP40-soluble protein abundance (LTA4H; concentration: 10mM): 0.81 ± 0.068
